# From the supplement of paper PMC4604168 (melanoma cell lines)
# The other results are listed elsewhere or left out. Repeats are few or missing, and single values can be far off.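 Cells were imaged in 1,536-well plates, and nuclei stained with an antibody against cleaved PARP were counted against all DNA-stained nuclei to give the apoptosis fraction. Screening doses were chosen to leave most cells alive, and resting and induced cleaved-PARP levels differ strongly between cell lines.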
# System: RVH-421
# Assay: cleaved PARP positive nuclei fraction relative to DMSO control; melanoma cells; higher = more apoptosis
# Details: library dose: low library concentration; 72 h
row,SMILES,cleaved PARP positive nuclei fraction [%]
1,"CS(=O)(=O)CCNCc1ccc(-c2ccc3ncnc(Nc4ccc(OCc5cccc(F)c5)c(Cl)c4)c3c2)o1 [lapatinib] + CN(C)S(=O)(=O)c1ccc2c(c1)/C(=C/c1cc3c([nH]1)CCCC3)C(=O)N2 [SU6656] (first compound 0.8 µM, partner dose 0.4 µM)",1720
2,"C[C@@H](Oc1cc(-c2cnn(C3CCNCC3)c2)cnc1N)c1c(Cl)ccc(F)c1Cl [Crizotinib] + CCCCCCCCCCCC1=C(O)C(=O)C=C(O)C1=O [Embelin] (first compound 0.2 µM, partner dose 1.2 µM)",68.5
3,"Nc1nc(F)nc2c1ncn2[C@@H]1O[C@H](CO)[C@@H](O)[C@@H]1O [fludarabine] + Cc1cc(N2CCOCC2)cc2[nH]c(-c3c(NC[C@@H](O)c4cccc(Cl)c4)cc[nH]c3=O)nc12 [BMS536924] (first compound 0.2 µM, partner dose 0.2 µM)",49.2
4,"Cc1cc(Nc2cc(N3CCN(C)CC3)nc(/C=C/c3ccccc3)n2)n[nH]1 + COc1ccc(COc2ccc(Cc3cnc(N)nc3N)cc2OC)cc1 [GW2580] (first compound 0.04 µM, partner dose 1 µM)",48.6
5,"CNC(=O)c1cc(Oc2ccc(NC(=O)Nc3ccc(Cl)c(C(F)(F)F)c3)cc2)ccn1 [sorafenib] + NCC(=O)Nc1ccc(-n2nc(C(F)(F)F)cc2-c2ccc3c(ccc4ccccc43)c2)cc1 [OSU03012] (first compound 0.4 µM, partner dose 1 µM)",118
